Library screen at single concentrations

Chains of the proteins cited; added tags and fusions are not shown. Residues count along the entry.
UniProt I6X8D2, whole entry: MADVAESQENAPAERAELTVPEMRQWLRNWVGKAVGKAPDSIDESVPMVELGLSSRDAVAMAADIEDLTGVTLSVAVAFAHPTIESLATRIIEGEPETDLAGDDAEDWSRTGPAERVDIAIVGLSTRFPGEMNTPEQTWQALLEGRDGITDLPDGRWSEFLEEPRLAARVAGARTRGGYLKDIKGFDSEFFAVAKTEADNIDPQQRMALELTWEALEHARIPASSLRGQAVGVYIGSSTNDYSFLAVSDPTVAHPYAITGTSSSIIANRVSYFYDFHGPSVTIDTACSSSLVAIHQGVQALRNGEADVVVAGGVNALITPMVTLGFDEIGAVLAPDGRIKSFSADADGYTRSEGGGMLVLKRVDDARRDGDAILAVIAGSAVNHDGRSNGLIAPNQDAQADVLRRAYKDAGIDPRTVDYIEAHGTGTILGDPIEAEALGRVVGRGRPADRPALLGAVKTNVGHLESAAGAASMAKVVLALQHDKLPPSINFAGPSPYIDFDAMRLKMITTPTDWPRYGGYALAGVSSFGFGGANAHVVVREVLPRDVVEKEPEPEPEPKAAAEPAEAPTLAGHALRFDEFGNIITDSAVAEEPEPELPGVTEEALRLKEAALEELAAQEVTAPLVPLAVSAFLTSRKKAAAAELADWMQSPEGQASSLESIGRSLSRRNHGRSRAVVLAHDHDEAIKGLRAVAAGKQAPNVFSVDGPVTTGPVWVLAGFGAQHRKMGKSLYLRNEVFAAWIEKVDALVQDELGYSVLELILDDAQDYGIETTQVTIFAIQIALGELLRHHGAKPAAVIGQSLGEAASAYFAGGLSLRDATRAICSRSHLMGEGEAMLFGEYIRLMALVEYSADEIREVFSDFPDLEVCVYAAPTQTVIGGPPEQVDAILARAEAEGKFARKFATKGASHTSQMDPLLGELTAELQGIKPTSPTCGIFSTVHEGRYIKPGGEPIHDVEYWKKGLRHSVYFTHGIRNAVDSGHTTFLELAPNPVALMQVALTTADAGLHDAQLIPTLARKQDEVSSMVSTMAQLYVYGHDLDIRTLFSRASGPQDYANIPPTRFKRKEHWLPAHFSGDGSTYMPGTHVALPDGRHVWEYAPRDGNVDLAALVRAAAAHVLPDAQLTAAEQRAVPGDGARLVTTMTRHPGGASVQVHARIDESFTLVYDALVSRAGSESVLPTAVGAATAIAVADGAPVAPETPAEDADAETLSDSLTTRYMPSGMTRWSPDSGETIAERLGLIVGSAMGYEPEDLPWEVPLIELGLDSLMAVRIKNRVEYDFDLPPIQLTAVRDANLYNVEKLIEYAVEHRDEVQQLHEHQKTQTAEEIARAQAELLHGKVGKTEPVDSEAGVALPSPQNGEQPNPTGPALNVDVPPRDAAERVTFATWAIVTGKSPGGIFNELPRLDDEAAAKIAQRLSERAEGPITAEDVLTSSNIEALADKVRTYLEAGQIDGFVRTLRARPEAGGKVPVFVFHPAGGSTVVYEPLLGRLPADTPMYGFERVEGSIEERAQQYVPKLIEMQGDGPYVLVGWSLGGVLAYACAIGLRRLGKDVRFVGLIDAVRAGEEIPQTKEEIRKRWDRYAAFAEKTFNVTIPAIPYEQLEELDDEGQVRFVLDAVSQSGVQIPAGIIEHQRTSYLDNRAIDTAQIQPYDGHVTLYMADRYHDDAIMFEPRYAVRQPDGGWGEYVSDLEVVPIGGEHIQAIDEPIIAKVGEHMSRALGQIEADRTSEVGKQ
UniProt A4I591, 1-473: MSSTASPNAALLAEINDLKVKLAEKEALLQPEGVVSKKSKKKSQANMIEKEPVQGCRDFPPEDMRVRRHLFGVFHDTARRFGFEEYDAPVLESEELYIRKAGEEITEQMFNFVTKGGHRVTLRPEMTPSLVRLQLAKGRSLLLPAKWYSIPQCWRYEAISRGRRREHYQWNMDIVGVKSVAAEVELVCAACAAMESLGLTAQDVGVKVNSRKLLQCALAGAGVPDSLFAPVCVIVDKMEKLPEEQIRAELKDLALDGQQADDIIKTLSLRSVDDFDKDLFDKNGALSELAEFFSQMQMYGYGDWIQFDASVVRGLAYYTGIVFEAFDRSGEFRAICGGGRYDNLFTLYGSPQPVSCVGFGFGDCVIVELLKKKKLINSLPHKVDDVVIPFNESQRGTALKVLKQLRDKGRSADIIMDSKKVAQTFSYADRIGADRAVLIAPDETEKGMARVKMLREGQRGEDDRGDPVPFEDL
UniProt P9WNZ1, whole entry: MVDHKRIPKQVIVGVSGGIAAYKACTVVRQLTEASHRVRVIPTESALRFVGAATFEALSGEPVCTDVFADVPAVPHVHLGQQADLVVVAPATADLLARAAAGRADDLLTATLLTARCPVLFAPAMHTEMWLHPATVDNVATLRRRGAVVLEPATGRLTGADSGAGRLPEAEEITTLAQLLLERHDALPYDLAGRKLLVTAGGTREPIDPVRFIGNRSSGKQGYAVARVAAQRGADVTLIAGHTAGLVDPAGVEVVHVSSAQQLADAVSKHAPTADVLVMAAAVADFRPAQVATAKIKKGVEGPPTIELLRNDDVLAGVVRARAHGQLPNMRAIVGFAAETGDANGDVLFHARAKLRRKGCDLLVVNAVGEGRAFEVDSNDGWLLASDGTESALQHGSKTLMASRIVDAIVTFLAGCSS

Measurements from “University of Dundee, Small-Polar-MMV Screening Library” (2021), ChEMBL document CHEMBL3988442.

Pks13 thioesterase: 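Enzyme assay of the thioesterase domain of polyketide synthase 13; the read-out is not stated. Target: Polyketide synthase Pks13, Mycobacterium tuberculosis (UniProt I6X8D2). Tested at 30 µM. Higher reads as stronger inhibition (inferred from which compounds were picked for retests). Size under these conditions: about 67,000 compounds, about 300 of them at 50% or above in at least one test.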
LiHisRS: 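Enzyme assay of histidyl-tRNA synthetase; the read-out is not stated. Target: Histidine-tRNA ligase, Leishmania infantum (UniProt A4I591). Compounds at 30 µM. The record gives no direction; compounds that gave an IC50 in retests scored well above the rest, so higher reads as stronger inhibition. The assay is labelled LdHisRS but filed under L. infantum. Of about 69,000 compounds tested this way, about 410 (0.6%) reached 50% or more in at least one test.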
CoaBC: 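Coenzyme A biosynthesis protein CoaBC, Mycobacterium tuberculosis (UniProt P9WNZ1). Enzyme assay of CoaBC with a phosphate dye (Biomol Green) read at 650 nm. Tested at 30 µM. Direction is inferred from only a few compounds that gave an IC50; most scored high, so higher reads as stronger inhibition. Most strong results did not repeat in a second test. Of about 67,000 compounds tested this way, about 40 (0.06%) reached 50% or more in at least one test.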

Values are the deposited “Percent Effect”, in %. The controls that fix the scale are not given in the record; negative values are as filed. This is an unselected part of the compounds tested.

{"compound": "CN(C)c1ncccc1CNC(=O)NCc1ccc(Cl)s1", "Pks13 thioesterase": -11.63, "LiHisRS": 13.46, "CoaBC": 0}
{"compound": "CC(=O)N1CCC2(CCCN2Cc2cnn(C)c2)CC1", "Pks13 thioesterase": -7.571, "LiHisRS": 12.73, "CoaBC": -13.45}
{"compound": "CC(c1nc(C2CC2)no1)N1CCN(Cc2ccccc2)CC1", "stereo": "stereo not given", "Pks13 thioesterase": -1.071, "LiHisRS": 16.98, "CoaBC": 2.316}
{"compound": "N#CCC(=O)NCc1nnc2n1CCN(Cc1nccs1)C2", "Pks13 thioesterase": -24.26, "LiHisRS": 20.51}
{"compound": "CCCn1ncc(C(=O)N2CCCC(OCc3ccccn3)C2)c1C", "stereo": "stereo not given", "Pks13 thioesterase": -15.55, "LiHisRS": 8.333, "CoaBC": 5.951}
{"compound": "CC(C)(C)CN1CCCC2(CCN(C(=O)c3ccc(O)nc3)C2)C1", "stereo": "stereo not given", "Pks13 thioesterase": -6.66, "LiHisRS": 13.13, "CoaBC": -3.865}
{"compound": "CCc1nnc2n1CCN(C(=O)c1cc3cc(C)ccc3[nH]1)C2", "Pks13 thioesterase": -9.422, "LiHisRS": 12.17, "CoaBC": 4}
{"compound": "CN(C)CCN1CC[C@@H]2O[C@@H](COCC(=O)N3CCCC3)CC[C@@H]21", "Pks13 thioesterase": -1.993, "LiHisRS": 16.13, "CoaBC": 1.85}
{"compound": "Cc1nc(C2CCN(c3ccccc3)CC2)no1", "Pks13 thioesterase": 7.486, "LiHisRS": 6.207, "CoaBC": -0.3708}
{"compound": "COc1nn(C)c2c1CCCN(C(=O)c1cccs1)C2", "Pks13 thioesterase": 1.679, "LiHisRS": 7.407, "CoaBC": -0.3841}
{"compound": "Cn1c(CN2CCCC2)nnc1C1CCCN(C(=O)CN2CCCC2)C1", "stereo": "stereo not given", "Pks13 thioesterase": -3.051, "LiHisRS": 19.44, "CoaBC": 6.349}
{"compound": "COCCn1c(CN2CCCO2)cnc1S(=O)(=O)CC1CCCCC1", "Pks13 thioesterase": -34.86, "LiHisRS": 20, "CoaBC": 2.792}
{"compound": "c1cc2c(cc1CN1CCN(Cc3noc(C4CC4)n3)CC1)OCO2", "Pks13 thioesterase": -6.32, "LiHisRS": 11.7, "CoaBC": 0.3367}
{"compound": "O=S(=O)(c1ccc(-c2cnco2)cc1)N1CCCC(O)(CO)CC1", "stereo": "stereo not given", "Pks13 thioesterase": 15.46, "LiHisRS": 9.756, "CoaBC": 2.926}
{"compound": "c1cnc2c(c1)cc([C@@H]1CCCO1)n2CCN1CCOCC1", "Pks13 thioesterase": -1.805, "LiHisRS": 9.375, "CoaBC": 0.2451}
{"compound": "Cc1ccc(CNC(=O)N2CCN(C(C)c3cccnc3)CC2)cn1", "stereo": "stereo not given", "Pks13 thioesterase": -22.49, "LiHisRS": 8.219, "CoaBC": -5.455}
{"compound": "c1cncc(OCc2noc3c2CN(Cc2cccs2)CC3)c1", "Pks13 thioesterase": -8.697, "LiHisRS": 28.21, "CoaBC": 10.28}
{"compound": "CCS(=O)(=O)N1CCc2ccc(NC(=O)Nc3cccc(SC)c3)cc21", "Pks13 thioesterase": 24.52, "LiHisRS": -47.57, "CoaBC": -7.731}
{"compound": "CCN(C(=O)CCc1ccccc1)C1CC(=O)NC1=O", "stereo": "stereo not given", "Pks13 thioesterase": 9.747, "LiHisRS": 9.639, "CoaBC": 0}
{"compound": "O=C1CC2(CCCC2)CN1CCOc1ccc(F)cc1", "Pks13 thioesterase": -17.95, "LiHisRS": 17.24, "CoaBC": 10.51}

2 of the entries, repeated:

| compound | Pks13 thioesterase | LiHisRS | CoaBC |
|---|---|---|---|
| `CCCn1ncc(C(=O)N2CCCC(OCc3ccccn3)C2)c1C` (stereo not given) | -15.55 | 8.333 | 5.951 |
| `CCN(C(=O)CCc1ccccc1)C1CC(=O)NC1=O` (stereo not given) | 9.747 | 9.639 | 0 |